Test results: the supplement of paper PMC10849652
This is one part of the list.

By UniProt entry, the sequences of proteins in these tests, tags left out. Where a name states a change or a piece, a line headed by the entry shows the natural chain unless it says otherwise.
UniProt Q9P0S9: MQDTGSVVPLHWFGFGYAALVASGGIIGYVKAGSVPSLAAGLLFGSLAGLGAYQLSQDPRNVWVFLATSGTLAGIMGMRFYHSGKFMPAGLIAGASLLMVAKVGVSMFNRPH
UniProt Q9NPI0: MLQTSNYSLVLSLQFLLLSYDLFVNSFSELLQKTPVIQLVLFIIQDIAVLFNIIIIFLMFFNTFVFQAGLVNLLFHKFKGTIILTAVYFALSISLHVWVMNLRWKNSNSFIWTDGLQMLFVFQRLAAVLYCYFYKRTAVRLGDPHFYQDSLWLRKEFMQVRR
UniProt Q9BZW5, whole entry, looked up: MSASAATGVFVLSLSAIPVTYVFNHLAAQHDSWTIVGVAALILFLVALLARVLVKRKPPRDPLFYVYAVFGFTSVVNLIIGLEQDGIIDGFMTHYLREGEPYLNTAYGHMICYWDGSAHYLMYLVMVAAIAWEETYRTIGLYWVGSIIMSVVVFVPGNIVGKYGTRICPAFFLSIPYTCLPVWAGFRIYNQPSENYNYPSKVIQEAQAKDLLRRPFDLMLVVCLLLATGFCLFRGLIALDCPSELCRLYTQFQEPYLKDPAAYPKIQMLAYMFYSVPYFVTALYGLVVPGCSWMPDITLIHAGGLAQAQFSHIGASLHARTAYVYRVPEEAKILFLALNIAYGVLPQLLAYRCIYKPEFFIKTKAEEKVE
UniProt P37173, whole entry, looked up: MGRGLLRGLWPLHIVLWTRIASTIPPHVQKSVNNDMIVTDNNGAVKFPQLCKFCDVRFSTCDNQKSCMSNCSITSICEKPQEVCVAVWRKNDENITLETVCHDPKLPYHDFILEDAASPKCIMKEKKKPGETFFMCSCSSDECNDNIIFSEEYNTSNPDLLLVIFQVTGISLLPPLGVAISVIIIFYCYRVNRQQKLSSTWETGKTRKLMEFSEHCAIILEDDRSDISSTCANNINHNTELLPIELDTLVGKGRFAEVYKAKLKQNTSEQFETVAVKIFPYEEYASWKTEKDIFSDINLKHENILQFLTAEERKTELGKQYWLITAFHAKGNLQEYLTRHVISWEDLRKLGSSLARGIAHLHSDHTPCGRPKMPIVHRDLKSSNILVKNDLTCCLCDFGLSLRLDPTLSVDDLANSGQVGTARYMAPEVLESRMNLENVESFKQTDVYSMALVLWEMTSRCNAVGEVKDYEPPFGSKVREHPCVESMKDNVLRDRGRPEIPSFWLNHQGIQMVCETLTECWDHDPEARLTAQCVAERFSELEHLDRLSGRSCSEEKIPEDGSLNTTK
UniProt Q7Z6K1, whole entry, looked up: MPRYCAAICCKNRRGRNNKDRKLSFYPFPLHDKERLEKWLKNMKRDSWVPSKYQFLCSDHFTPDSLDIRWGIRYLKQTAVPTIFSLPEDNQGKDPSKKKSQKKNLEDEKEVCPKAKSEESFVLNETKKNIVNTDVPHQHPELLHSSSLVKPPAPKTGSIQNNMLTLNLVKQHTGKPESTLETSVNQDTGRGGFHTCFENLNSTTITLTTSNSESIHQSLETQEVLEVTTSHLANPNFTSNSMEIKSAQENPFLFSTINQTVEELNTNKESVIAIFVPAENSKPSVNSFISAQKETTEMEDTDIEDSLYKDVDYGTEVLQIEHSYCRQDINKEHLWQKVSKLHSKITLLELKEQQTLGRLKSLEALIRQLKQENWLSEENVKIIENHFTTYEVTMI
UniProt Q8WTV1: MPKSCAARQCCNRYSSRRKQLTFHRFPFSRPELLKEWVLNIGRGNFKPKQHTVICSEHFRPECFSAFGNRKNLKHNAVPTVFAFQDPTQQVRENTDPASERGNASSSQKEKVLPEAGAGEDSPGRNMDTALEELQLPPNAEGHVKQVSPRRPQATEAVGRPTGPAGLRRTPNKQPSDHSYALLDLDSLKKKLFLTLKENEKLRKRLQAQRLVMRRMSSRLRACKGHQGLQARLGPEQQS
UniProt Q8NE00: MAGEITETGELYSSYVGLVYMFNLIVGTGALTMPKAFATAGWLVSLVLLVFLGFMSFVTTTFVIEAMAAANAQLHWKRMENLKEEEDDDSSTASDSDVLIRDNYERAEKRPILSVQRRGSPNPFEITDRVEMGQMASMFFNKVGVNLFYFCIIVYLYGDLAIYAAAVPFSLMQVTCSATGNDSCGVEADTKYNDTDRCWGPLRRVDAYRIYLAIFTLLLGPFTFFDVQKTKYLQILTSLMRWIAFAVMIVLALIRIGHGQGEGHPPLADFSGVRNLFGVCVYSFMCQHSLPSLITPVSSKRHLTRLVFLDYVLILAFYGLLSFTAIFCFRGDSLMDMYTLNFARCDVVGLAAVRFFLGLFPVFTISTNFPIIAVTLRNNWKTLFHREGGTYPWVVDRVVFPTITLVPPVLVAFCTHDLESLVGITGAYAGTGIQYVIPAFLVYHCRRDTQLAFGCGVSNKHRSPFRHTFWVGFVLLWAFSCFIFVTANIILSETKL
UniProt Q86UE8, whole entry, looked up: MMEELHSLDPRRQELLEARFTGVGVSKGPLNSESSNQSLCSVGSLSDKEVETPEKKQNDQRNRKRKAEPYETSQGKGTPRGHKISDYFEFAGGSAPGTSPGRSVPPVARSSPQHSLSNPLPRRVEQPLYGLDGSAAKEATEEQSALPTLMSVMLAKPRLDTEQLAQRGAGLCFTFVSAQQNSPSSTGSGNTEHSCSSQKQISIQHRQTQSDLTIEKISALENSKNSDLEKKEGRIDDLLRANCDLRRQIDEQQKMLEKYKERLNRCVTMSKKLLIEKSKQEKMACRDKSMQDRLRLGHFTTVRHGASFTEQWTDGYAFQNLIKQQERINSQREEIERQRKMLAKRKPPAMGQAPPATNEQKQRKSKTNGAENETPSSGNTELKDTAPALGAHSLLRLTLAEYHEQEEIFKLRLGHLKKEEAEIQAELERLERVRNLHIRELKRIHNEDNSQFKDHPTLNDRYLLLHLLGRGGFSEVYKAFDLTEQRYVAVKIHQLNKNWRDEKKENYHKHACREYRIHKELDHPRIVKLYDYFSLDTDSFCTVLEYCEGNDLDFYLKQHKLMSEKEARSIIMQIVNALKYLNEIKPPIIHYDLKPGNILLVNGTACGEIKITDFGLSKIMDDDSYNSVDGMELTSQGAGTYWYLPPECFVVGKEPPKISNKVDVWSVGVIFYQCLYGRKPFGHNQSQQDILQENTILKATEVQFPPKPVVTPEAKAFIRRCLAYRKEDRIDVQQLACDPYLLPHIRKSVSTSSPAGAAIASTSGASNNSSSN
UniProt Q9H1K6: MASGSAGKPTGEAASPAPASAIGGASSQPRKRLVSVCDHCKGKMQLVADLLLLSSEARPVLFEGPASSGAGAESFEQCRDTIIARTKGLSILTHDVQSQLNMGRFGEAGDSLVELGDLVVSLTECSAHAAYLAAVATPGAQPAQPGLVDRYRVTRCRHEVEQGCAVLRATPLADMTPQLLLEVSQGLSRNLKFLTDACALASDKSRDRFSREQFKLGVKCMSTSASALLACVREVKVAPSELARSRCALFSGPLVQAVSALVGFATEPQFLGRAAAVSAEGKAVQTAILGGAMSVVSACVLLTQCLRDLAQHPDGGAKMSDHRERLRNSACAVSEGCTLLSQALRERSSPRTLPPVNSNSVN
UniProt Q7Z403: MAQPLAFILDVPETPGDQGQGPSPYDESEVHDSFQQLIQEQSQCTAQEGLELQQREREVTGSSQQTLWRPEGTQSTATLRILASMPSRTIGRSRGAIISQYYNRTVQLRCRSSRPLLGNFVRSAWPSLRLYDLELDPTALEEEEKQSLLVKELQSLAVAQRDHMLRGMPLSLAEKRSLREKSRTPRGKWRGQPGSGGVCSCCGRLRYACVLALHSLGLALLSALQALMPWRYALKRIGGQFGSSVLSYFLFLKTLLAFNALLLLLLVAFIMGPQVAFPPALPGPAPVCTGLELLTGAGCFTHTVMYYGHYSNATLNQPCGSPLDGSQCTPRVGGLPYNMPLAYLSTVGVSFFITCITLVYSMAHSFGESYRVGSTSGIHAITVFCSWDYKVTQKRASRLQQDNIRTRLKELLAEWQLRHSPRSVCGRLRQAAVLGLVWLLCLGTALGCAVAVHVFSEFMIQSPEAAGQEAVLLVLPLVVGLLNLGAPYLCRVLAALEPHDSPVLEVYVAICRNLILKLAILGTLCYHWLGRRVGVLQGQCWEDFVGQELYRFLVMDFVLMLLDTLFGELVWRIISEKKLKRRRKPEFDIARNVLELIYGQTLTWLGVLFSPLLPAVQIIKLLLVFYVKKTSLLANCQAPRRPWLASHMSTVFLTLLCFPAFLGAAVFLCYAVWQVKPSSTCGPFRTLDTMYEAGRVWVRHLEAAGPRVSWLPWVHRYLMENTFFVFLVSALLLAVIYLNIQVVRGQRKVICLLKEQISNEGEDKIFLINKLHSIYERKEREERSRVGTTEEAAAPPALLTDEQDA
UniProt Q7Z2Z1: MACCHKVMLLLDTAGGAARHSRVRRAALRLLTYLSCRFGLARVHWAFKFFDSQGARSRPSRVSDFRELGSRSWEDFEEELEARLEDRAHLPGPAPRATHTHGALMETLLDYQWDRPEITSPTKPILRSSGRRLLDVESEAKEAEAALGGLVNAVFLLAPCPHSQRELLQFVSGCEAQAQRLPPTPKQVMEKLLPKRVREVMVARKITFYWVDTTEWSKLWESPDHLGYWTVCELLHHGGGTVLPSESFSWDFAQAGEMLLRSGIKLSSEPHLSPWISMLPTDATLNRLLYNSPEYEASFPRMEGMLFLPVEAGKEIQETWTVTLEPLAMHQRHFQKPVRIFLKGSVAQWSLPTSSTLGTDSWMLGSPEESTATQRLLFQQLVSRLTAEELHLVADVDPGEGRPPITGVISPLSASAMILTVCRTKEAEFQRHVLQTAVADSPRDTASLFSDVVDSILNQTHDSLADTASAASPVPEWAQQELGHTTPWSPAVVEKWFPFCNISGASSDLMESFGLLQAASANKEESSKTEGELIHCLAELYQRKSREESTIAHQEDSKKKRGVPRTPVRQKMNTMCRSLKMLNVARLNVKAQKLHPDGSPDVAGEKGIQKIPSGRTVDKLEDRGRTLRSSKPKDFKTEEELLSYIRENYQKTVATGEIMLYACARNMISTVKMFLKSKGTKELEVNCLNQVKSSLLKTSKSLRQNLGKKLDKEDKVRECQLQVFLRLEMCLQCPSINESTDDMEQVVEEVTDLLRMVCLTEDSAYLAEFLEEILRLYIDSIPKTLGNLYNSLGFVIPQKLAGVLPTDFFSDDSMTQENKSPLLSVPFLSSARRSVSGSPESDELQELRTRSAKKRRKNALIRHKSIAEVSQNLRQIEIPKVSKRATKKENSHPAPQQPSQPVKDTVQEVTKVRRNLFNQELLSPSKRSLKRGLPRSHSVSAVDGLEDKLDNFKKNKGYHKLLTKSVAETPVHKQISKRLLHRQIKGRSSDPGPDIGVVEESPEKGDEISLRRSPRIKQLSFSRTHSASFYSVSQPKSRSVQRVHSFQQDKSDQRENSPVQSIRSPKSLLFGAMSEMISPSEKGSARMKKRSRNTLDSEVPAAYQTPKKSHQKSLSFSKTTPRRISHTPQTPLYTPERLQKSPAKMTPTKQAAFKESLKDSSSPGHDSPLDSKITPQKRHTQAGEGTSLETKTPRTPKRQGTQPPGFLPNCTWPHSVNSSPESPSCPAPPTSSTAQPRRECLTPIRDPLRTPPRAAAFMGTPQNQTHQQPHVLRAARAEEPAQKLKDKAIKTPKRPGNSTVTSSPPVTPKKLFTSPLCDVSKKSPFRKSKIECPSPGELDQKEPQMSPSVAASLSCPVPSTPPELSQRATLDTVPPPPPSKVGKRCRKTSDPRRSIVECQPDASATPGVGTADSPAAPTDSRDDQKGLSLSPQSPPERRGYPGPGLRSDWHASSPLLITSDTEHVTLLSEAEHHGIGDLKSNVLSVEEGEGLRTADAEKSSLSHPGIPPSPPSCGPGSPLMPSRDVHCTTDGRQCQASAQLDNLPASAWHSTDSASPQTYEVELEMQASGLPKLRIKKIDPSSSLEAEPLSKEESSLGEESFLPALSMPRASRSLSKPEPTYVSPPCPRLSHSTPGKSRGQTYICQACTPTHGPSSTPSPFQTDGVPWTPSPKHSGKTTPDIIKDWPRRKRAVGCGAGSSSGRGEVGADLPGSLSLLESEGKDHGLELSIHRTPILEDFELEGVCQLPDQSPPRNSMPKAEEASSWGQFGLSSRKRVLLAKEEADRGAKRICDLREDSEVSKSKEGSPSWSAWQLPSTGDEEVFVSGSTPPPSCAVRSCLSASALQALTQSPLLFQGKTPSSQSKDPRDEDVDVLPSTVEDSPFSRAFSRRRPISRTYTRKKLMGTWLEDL
UniProt Q1AE95: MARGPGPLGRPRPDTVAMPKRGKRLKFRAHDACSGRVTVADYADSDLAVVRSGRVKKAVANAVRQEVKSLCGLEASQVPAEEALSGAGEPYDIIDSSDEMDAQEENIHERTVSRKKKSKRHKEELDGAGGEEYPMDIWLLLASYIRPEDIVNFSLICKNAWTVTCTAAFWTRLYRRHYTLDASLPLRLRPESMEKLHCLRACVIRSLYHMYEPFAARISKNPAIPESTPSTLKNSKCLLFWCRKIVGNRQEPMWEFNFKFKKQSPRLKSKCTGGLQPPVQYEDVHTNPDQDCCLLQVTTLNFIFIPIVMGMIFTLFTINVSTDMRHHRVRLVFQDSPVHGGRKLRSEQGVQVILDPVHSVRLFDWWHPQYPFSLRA

What was measured:
Assay in all cases: log2 fold change, soluble protein after heating vs DMSO (PISA); higher = thermal stabilisation; K562 lysate, 10 uM; active = over 0.2 and 3.5 SD of the protein, either way, in both replicates (recomputed)
[1] = compound: CN1CCc2c(c3ccccc3n2Cc2ccc(C(=O)NO)cc2)C1 [Tubastatin A]
Procedure, shortened: (§1)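 Pellets of K562 cells were dounce-homogenised in PBS pH 7.4 with 1 mM MgCl2, and the crude extract was held at 1 mg/mL protein for a 30 min treatment with 10 μM compound. Aliquots were heated for 3 min over 48°C-58°C and pooled before NP-40 was added to 0.5% at 4°C. The supernatant from 21,000xg for 90 min was quantified by TMTpro 16plex LC-MS/MS with channel sums equalised. Values are reported from duplicates as log-two fold change in thermal stability relative to solvent controls.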

[2] = compound: CNC(=O)C1=CC=CC=C1NC2=NC(=NC=C2Cl)NC3=C(C=C(C=C3)N4CCOCC4)OC
Procedure, shortened: as §1

[3] = compound: CNC(=O)c1ccc(Nc2ncc(C(F)(F)F)c(NCc3nccnc3N(C)S(C)(=O)=O)n2)cc1 [defactinib]
Procedure, shortened: as §1

[4] = compound: CNc1nc(-c2ccc3c(N)n[nH]c3c2)cc(N2C[C@@H](C(=O)NC3CCCCC3)CC[C@H]2C)n1
Procedure, shortened: as §1

[5] = compound: COC(=O)N[C@@H](C)CNc1nccc(-c2cn(C(C)C)nc2-c2cc(Cl)cc(NS(C)(=O)=O)c2F)n1 [encorafenib]
Procedure, shortened: as §1

[6] = compound: COC(=O)[C@H](CCSC)NC(=O)C1=C(C=C(C=C1)NC[C@H](CS)N)C2=CC=CC=C2
Procedure, shortened: as §1

[7] = compound: COc1cc(Nc2ncc3c(n2)-c2ccc(Cl)cc2C(c2c(F)cccc2OC)=NC3)ccc1C(=O)O [alisertib]
Procedure, shortened: as §1

[8] = compound: COc1cc2nc(-c3cc(F)ccc3O)nc(N[C@@H]3CNC[C@H]3C(C)(C)O)c2cc1OC
Procedure, shortened: as §1

[9] = compound: COc1cc2ncnc(Nc3ccc(F)c(Cl)c3)c2cc1OCCCN1CCOCC1 [gefitinib]
Procedure, shortened: as §1

[10] = compound: CS(=O)(=O)CCNCc1ccc(-c2ccc3ncnc(Nc4ccc(OCc5cccc(F)c5)c(Cl)c4)c3c2)o1 [lapatinib]
Procedure, shortened: as §1

[11] = compound: CS(=O)(=O)N1CCN(Cc2cc3nc(-c4cccc5[nH]ncc45)nc(N4CCOCC4)c3s2)CC1 [pictilisib]
Procedure, shortened: as §1

[12] = compound: C[C@@H](Oc1cc(-c2cnn(C3CCNCC3)c2)cnc1N)c1c(Cl)ccc(F)c1Cl [crizotinib]
Procedure, shortened: as §1

[13] = compound: C[C@H](Nc1ncnc2nc[nH]c12)c1cc2cccc(Cl)c2c(=O)n1-c1ccccc1 [duvelisib]
Procedure, shortened: as §1

[14] = compound: Cc1cc(Nc2cc(N3CCN(C)CC3)nc(Sc3ccc(NC(=O)C4CC4)cc3)n2)n[nH]1 [tozasertib]
Procedure, shortened: as §1

[15] = compound: Cc1ccc(-n2nc(C(C)(C)C)cc2NC(=O)Nc2ccc(OCCN3CCOCC3)c3ccccc23)cc1 [doramapimod]
Procedure, shortened: as §1

[16] = compound: Cc1ccc(NC(=O)c2ccc(CN3CC[C@H](N(C)C)C3)c(C(F)(F)F)c2)cc1Nc1nccc(-c2cncnc2)n1 [bafetinib]
Procedure, shortened: as §1

[17] = compound: CN1CC[C@H](c2c(O)cc(O)c3c(=O)cc(-c4ccccc4Cl)oc23)[C@H](O)C1 [alvocidib]
Procedure, shortened: as §1

[18] = compound: C[C@H](C1=CC=C(C=C1)C(=O)NC2=C3C=CNC3=NC=C2)N
Procedure, shortened: as §1

[19] = compound: Cc1cc(Nc2cc(CN3CCOCC3)c3nc(C)c(Cc4ccc(Cl)cc4F)n3n2)n[nH]1 [gandotinib]
Procedure, shortened: as §1

[20] = compound: Cc1cccc(CC(=O)N2CCc3c2ccc(-c2cn(C)c4ncnc(N)c24)c3F)n1
Procedure, shortened: as §1

Measured: log2 fold change

TMEM14C (UniProt Q9P0S9)
active: [1] -0.463
inactive: [2] 0.033 | [3] 0.205 | [4] 0.011 | [5] 0.004 | [6] 0.022 | [7] -0.011 | [8] -0.168 | [9] 0.003 | [10] 0.123 | [11] 0.162 | [12] -0.087 | [13] 0.016 | [14] -0.099 | [15] 0.002 | [16] -0.094

TMCO3 (UniProt Q6UWJ1)
inactive: [17] 0.02 | [3] 0.107 | [5] -0.022 | [6] 0 | [11] -0.071 | [12] -0.064 | [18] 0.176 | [19] -0.169 | [14] 0.015 | [15] -0.014 | [16] 0.144 | [20] -0.089

TMEM106C (UniProt Q9BVX2)
inactive: [2] 0.32 | [5] -0.008 | [6] 0.124 | [11] -0.005 | [14] 0.033 | [16] -0.146

TMEM138 (UniProt Q9NPI0)
inactive: [2] -0.121 | [3] 0.084 | [4] 0.01 | [5] -0.048 | [6] -0.062 | [13] -0.152 | [14] -0.103

TMEM131 (UniProt Q92545)
inactive: [17] -0.279 | [18] -0.141 | [19] 0.013 | [20] 0.204

TM6SF1 (UniProt Q9BZW5)
inactive: [17] 0.028 | [2] -0.014 | [3] 0.008 | [4] -0.019 | [5] -0.018 | [6] -0.096 | [8] 0.004 | [10] 0.05 | [11] -0.089 | [12] 0.096 | [18] -0.133 | [13] 0.045 | [19] 0.003 | [14] 0.041 | [15] 0.042 | [16] -0.075 | [20] 0.065

THBS1 (UniProt P07996)
inactive: [17] -0.048 | [3] -0.014 | [4] -0.065 | [12] -0.002 | [18] 0.038 | [13] -0.031 | [19] 0.01 | [15] 0.049 | [20] 0.147

Quoted at random: 2 entries already listed, in no set order.
TMEM106C (UniProt Q9BVX2)
inactive: [2] 0.32 | [5] -0.008 | [6] 0.124 | [11] -0.005 | [14] 0.033 | [16] -0.146

TMEM138 (UniProt Q9NPI0)
inactive: [2] -0.121 | [3] 0.084 | [4] 0.01 | [5] -0.048 | [6] -0.062 | [13] -0.152 | [14] -0.103

(continued)

TKTL1 (UniProt P51854)
inactive: [17] 0.074 | [4] -0.039 | [5] -0.235 | [6] 0.299 | [18] 0.051 | [13] 0.31 | [19] -0.007 | [14] -0.171 | [20] -0.173

TGFBR2 isoform 2 (UniProt P37173)
inactive: [1] 0.165 | [2] 0.104 | [4] 0.094 | [5] -0.154 | [6] 0.116 | [13] -0.063 | [14] -0.011

TM7SF2 (UniProt O76062)
inactive: [17] 0.067 | [12] 0.234 | [18] 0.042 | [19] 0.158 | [15] -0.112 | [20] -0.113

THAP5 (UniProt Q7Z6K1)
inactive: [4] -0.164 | [13] -0.292

THAP3 (UniProt Q8WTV1)
inactive: [1] 0.063 | [2] -0.049 | [7] 0.034 | [9] -0.025 | [12] 0.046 | [15] 0.044

TMEM104 (UniProt Q8NE00)
inactive: [17] -0.065 | [3] -0.156 | [11] -0.007 | [12] 0.023 | [18] 0.026 | [19] -0.001 | [15] -0.034 | [16] -0.064 | [20] 0.062

TLK2 isoform 3 (UniProt Q86UE8)
inactive: [17] 0.007 | [18] 0.012 | [19] 0.009 | [20] -0.101

THAP7 (UniProt Q9BT49)
inactive: [7] 0.001 | [9] 0

TLNRD1 (UniProt Q9H1K6)
inactive: [1] 0.17 | [4] 0.063 | [8] 0.132 | [10] 0.008 | [11] -0.402 | [12] 0.147 | [13] 0.032 | [15] -0.231 | [16] -0.698

TMEM129
inactive: [17] -0.021 | [2] -0.028 | [18] 0.127 | [19] -0.151 | [20] 0.008

TMC1 (UniProt Q8TDI8)
inactive: [1] -0.088 | [2] -0.028 | [3] -0.002 | [5] 0.03 | [6] 0.054 | [7] 0.216 | [8] 0.021 | [9] 0.215 | [10] -0.134 | [12] -0.262 | [14] 0.074 | [15] 0.252

TMC6 (UniProt Q7Z403)
inactive: [1] -0.085 | [2] 0.109 | [3] 0.094 | [7] -0.052 | [8] -0.176 | [9] 0.03 | [10] 0.026 | [12] -0.036 | [15] 0

TGM2 (UniProt A2A299)
inactive: [7] 0.044 | [8] -0.008 | [9] -0.048 | [10] -0.144

TICRR (UniProt Q7Z2Z1)
inactive: [4] -0.372 | [13] 0.116

TMEM184B (UniProt Q9Y519)
inactive: [1] 0.014 | [4] -0.018 | [12] 0.024 | [13] 0.053 | [15] -0.07

TMEM183B (UniProt Q1AE95)
inactive: [17] 0.004 | [1] 0.109 | [3] -0.671 | [18] -0.027 | [19] -0.148 | [20] 0.096
